Assay results as given in PubChem BioAssay AID1487 (National Center for Advancing Translational Sciences (NCATS), 2009).
The list shows a part of the results. Shown are side measurements of this screen, not its main read-out; they come without a call. Most of these compounds were active or inconclusive in the main read-out, so they are no random draw. Words in brackets tell the shape of the fitted curve; partial curves, single points and poor fits give uncertain potencies.

Experiment: qHTS Assay for Modulators of Lamin A Splicing
Conditions: HeLa LMNA splicing GFP/RFP minigene ratio, 48 h
In short: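 S3 HeLa stable clones carrying a lamin A-EGFP splicing minigene plus DsRed2 were seeded at 600 cells/well in Opti-MEM with 2% FBS, pin-dosed and incubated 48 h at 37°C. Acumen cytometry (488 nm) gave the GFP/RFP total-intensity ratio.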

[1] = measured here: GFP splicing reporter channel
[2] = measured here: RFP viability control channel

Row | SMILES | AC50 [1] | AC50 [2]
1 | O=C(Nc1ccc2c(c1)CCC2)c1ccc(F)c(S(=O)(=O)N2CCOCC2)c1 | 11.2 µM [rising, partial curve] | 22.4 µM [rising, partial curve]
2 | Cc1cc(C)cc(-n2nnnc2SCC(=O)Nc2nc(-c3ccc(Cl)cc3)cs2)c1 | 25.1 µM [falling, single point] | 35.5 µM [falling, single point]
3 | O=C(/C=C/C=C/c1ccccc1)CC1(O)C(=O)N(CCc2ccccc2)c2ccccc21 (stereo not given) | 17.8 µM [falling, single point] | 25.1 µM [falling, single point]
4 | Cc1cc(C)c2c(N)c3ccccc3nc2n1 | 11.2 µM [falling, single point] | 7.94 µM [falling, partial curve, poor fit]
5 | CC(C)(C)OC(=O)N1CCC(c2c(C(=O)NCCc3ccccc3)cnn2-c2ccc(F)cc2F)CC1 | 0.158 µM [rising, full curve, poor fit] | –
6 | COc1ccc(-c2c(C)c3ccc(O)c(CN4CCN(CCO)CC4)c3oc2=O)cc1OC | 22.4 µM [falling, single point] | 0.0224 µM [falling, full curve, poor fit]
7 | Cc1nc2ccccc2n1C1CCN(C(=O)Nc2ccccc2)CC1 | – | 39.8 µM [falling, partial curve, poor fit]
8 | CCOc1cc(N2CCOCC2)c(OCC)cc1NC(=O)c1ccc(NC(C)=O)cc1 | 3.98 µM [falling, full curve, poor fit] | 4.47 µM [falling, single point]
9 | COc1ccc(CC(=O)NCc2nnc(SCC(=O)Nc3ccccc3)n2C)cc1 | 0.00447 µM [falling, full curve, poor fit] | –
10 | O=c1c2cn[nH]c2nc(SCc2c(F)cccc2F)n1-c1ccc(Cl)cc1 | 12.6 µM [falling, partial curve] | –
11 | O=c1c2cc(N3CCOCC3)ccc2[nH]c(=S)n1Cc1cccc(Cl)c1 | – | 0.501 µM [falling, full curve, poor fit]
12 | CC(C)(C)c1cc(C(F)(F)F)nc(SCCCNC(=O)c2ccco2)n1 | – | 22.4 µM [rising, single point]
13 | O=C(Nc1nc2ccc(SC(F)F)cc2s1)c1ccc(NS(=O)(=O)c2ccc(F)c(F)c2)cc1 | 35.5 µM [falling, single point] | 35.5 µM [falling, single point]
14 | COC1C(OC(=O)/C=C/C=C/C=C/C=C/C(=O)O)CCC2(CO2)C1C1(C)OC1CC=C(C)C (stereo not given) | 35.5 µM [falling, single point] | 15.8 µM [falling, single point]
15 | CCOC(=O)c1sc(N)c(C#N)c1CSc1nc2ccc(C)cc2[nH]1 | 3.98 µM [rising, partial curve] | –
16 | CCn1c(-c2ccccc2Cl)nn(CC(=O)NCCc2ccccc2)c1=S | – | 22.4 µM [rising, single point]
17 | CS(=O)(=O)N(CC(=O)N1CCN(C(c2ccccc2)c2ccccc2)CC1)C1CCCCC1 | 12.6 µM [rising, partial curve] | 12.6 µM [rising, partial curve]
18 | COc1ccc2cc(/C=N/NC(=O)c3ccc(CN(c4cccc(Cl)c4Cl)S(C)(=O)=O)cc3)c(Cl)nc2c1 | 0.891 µM [rising, full curve] | 2 µM [rising, full curve]
19 | CN1C(=O)/C(=C/c2ccc3c(c2)OCO3)N=C1c1ccccc1 | 11.2 µM [rising, partial curve, poor fit] | –
20 | O=C1C(c2ccc(F)cc2)N(CCc2ccccc2)C(=O)CN1C1CCCCCC1 (stereo not given) | – | 0.282 µM [falling, partial curve]
21 | COc1cc(/C=N/NC(=O)C(=O)/C=C2\NC3(CCCC3)Cc3ccccc32)ccc1O | – | 15.8 µM [rising, single point]
22 | CCOc1ccc(N2CC(O)=C(c3nc4ccccc4c(=O)[nH]3)C2=N)cc1 | 1.58 µM [rising, partial curve] | 5.01 µM [rising, partial curve, poor fit]
23 | CCN1CCN(CC(=O)N/N=C/c2ccc(F)cc2F)CC1 | – | 6.31 µM [rising, full curve]
24 | COc1ccc(-n2c(-c3ccc(Br)cc3)c[n+]3c2CCc2ccccc2-3)cc1 | – | 5.62 µM [rising, single point]
25 | O=C(/C=C/c1ccc(Cl)cc1Cl)c1cccnc1 | 0.794 µM [rising, full curve, poor fit] | 12.6 µM [rising, partial curve, poor fit]
26 | CC(C)C(c1nnnn1C1CCCC1)N1CCCc2ccccc21 (stereo not given) | 35.5 µM [rising, single point] | –
27 | COc1ccc(/C=N/OCC(=O)N=Nc2c(O)[nH]c3ccc(Br)cc23)cc1OC | 1.12 µM [rising, full curve] | 1.12 µM [rising, full curve]
28 | O=C(Oc1ccc2ccc(=O)oc2c1)c1cccs1 | 0.00355 µM [falling, full curve, poor fit] | 0.00447 µM [falling, full curve, poor fit]

Part of the list above, with tabs:
Row	SMILES	AC50 [1]	AC50 [2]
7	Cc1nc2ccccc2n1C1CCN(C(=O)Nc2ccccc2)CC1	–	39.8 µM [falling, partial curve, poor fit]
8	CCOc1cc(N2CCOCC2)c(OCC)cc1NC(=O)c1ccc(NC(C)=O)cc1	3.98 µM [falling, full curve, poor fit]	4.47 µM [falling, single point]

More structures

Row | SMILES | AC50 [1] | AC50 [2]
29 | O=C1OC(c2ccccc2)=C/C1=C/N1CCOCC1 | – | 0.891 µM [rising, full curve]
30 | Cc1ccc(-c2cc(C(=O)N/N=C/C=C/c3ccco3)c3ccccc3n2)cc1C | – | 10 µM [rising, partial curve]
31 | CN(C(=O)CSc1nc(-c2ccc(F)cc2)cs1)C1CCS(=O)(=O)C1 (stereo not given) | 14.1 µM [rising, single point] | –
32 | CCOC(=O)c1[nH]c(C)c(C(=O)NCc2ccc(Cl)cc2)c1C | – | 35.5 µM [rising, single point]
33 | CN(C)S(=O)(=O)c1ccc(Cl)c(C(=O)Nc2ccccc2[N+](=O)[O-])c1 | – | 20 µM [rising, single point]
34 | CN(C)c1cccc(C(=O)NCc2ccccc2)c1 | – | 0.224 µM [falling, full curve, poor fit]
35 | CCOC(=O)C(NC(C)=O)C(=O)Nc1ccc(C(C)(C)C)cc1 (stereo not given) | 0.0562 µM [falling, full curve] | –
36 | Cc1c(C(=O)C(=O)N2CCCc3ccccc32)c2ccccc2n1C | – | 6.31 µM [rising, full curve]
37 | CN(C)S(=O)(=O)c1cc(NC(=O)CSc2ncc(C(F)(F)F)cc2Cl)ccc1Cl | 8.91 µM [rising, partial curve] | 12.6 µM [rising, partial curve]
38 | CCc1cccc(C)c1NC(=O)CSc1nnc(CCCOc2ccc(Cl)cc2Cl)n1C | – | 12.6 µM [rising, partial curve, poor fit]
39 | Cc1ccc(OCC(=O)Nc2ccccc2OCc2cc(=O)n3ccccc3n2)cc1C | – | 15.8 µM [rising, partial curve, poor fit]
40 | Cc1cccc(NC(c2ccccc2F)c2ccc3ccc(C)nc3c2O)n1 (stereo not given) | 35.5 µM [falling, single point] | –
41 | CCc1cccc(C)c1NC(=O)Cn1nc(C)c2nn(-c3ccc(Cl)cc3)c(C)c2c1=O | 22.4 µM [falling, single point] | –
42 | CCN(CC(=O)NC(C)(C)C)C(=O)CCl | – | 35.5 µM [rising, single point]
43 | COc1ccc(-c2nc(C#N)c(N3CCCCCC3)o2)cc1OC | – | 14.1 µM [rising, single point]
44 | Cc1cc(=O)[nH]c(SCC(=O)Nc2nc(-c3ccccc3)c(-c3ccccc3)o2)n1 | – | 8.91 µM [rising, partial curve, poor fit]
45 | Nc1nc2ccc(-c3nc4ccccc4o3)cc2s1 | – | 7.08 µM [falling, full curve, poor fit]
46 | Cc1ccc2c(c1)nnn2C1CCN(C(=O)C2CCCCC2)CC1 | 15.8 µM [rising, single point] | 12.6 µM [rising, partial curve]
47 | O=c1nc2c(O)cccn2c2c1c(=O)[nH]c1ccccc12 | 0.112 µM [falling, full curve, poor fit] | –
48 | O=C(O)CC(NC(=O)Cc1ccccc1)c1cc([N+](=O)[O-])ccc1Cl (stereo not given) | – | 0.00316 µM [falling, full curve, poor fit]
49 | O=C(CSc1nnc(Nc2ccccc2F)s1)c1cc2ccccc2o1 | 35.5 µM [rising, single point] | 35.5 µM [rising, single point]
50 | O=C(Cc1csc2nc(-c3ccc(F)cc3)cn12)NCc1ccccc1 | 35.5 µM [falling, single point] | –
51 | O=C(CCCc1nc(-c2ccc(Cl)cc2)no1)Nc1cccnc1 | 3.55 µM [rising, full curve] | 7.08 µM [rising, full curve]
52 | C=CCc1ccccc1OCC(O)CN1CCN(c2ccccc2OC)CC1 (stereo not given) | 0.316 µM [rising, partial curve, poor fit] | 7.08 µM [rising, partial curve]
53 | CN(C)c1ccc(C(=O)Nc2nnc(-c3ccc(Cl)cc3)o2)cc1 | – | 7.08 µM [rising, partial curve]
54 | O=C(NC1CCCCCC1)c1cc(S(=O)(=O)N2CCOCC2)ccc1N1CCCCC1 | 14.1 µM [rising, single point] | 22.4 µM [rising, single point]
55 | COc1ccc(Br)cc1-c1nc(CCl)cs1 | – | 10 µM [falling, partial curve, poor fit]

Single records (already shown). Order of values: AC50 [1]	AC50 [2]
`CCc1cccc(C)c1NC(=O)CSc1nnc(CCCOc2ccc(Cl)cc2Cl)n1C` as listed: –	12.6 µM [rising, partial curve, poor fit]
`Cc1ccc(OCC(=O)Nc2ccccc2OCc2cc(=O)n3ccccc3n2)cc1C` as listed: –	15.8 µM [rising, partial curve, poor fit]
`COc1ccc(/C=N/OCC(=O)N=Nc2c(O)[nH]c3ccc(Br)cc23)cc1OC` as listed: 1.12 µM [rising, full curve]	1.12 µM [rising, full curve]
